US20110046090A1, “MODULATION OF NEUROGENESIS WITH GABA AGENTS AND GABA ANALOGS” (BrainCells Inc., priority 2005, published 2011)

System: human neural stem cells (hNSCs)
Assay: neuronal differentiation of cultured human neural stem cells (TUJ-1 staining), agents alone and in combination;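 also: cells kept in mitogen-free test media, with growth-factor-free basal medium as the negative control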
Settings: read-out: EC50 for neuronal differentiation, agent alone; compound run individually; % of neuronal positive control, basal media subtracted

In the case of `NCCCC(=O)O` [GABA], the EC50 is reported as 5.46 µM.
